{"source": "PubChem BioAssay AID493014", "about": "(National Center for Advancing Translational Sciences (NCATS), 2011)", "note": "Screen size: about 340,000 compounds; about 170 (0.05%) were called active. Inconclusive results, whose numbers are uncertain, are shown with a selection of clear calls. The call rests on the fitted dose curve; in most records, active means well fitted inhibition curve with a large enough effect in the signal ratio, with a control signal flat (not every such curve was filed as active); inconclusive means small, poorly fitted or top-dose-only effect, or effect the other way, or a change in a side signal; inactive means flat fitted curve, though single readings scatter; the % refers to the signal ratio. Potencies of inconclusive entries are doubtful fits and often do not repeat. Potency means the concentration at half of the fitted maximal effect."}
{"test": "qHTS Assay to Find Inhibitors of Chronic Active B-Cell Receptor Signaling;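 on activity change, negative = inhibition: plate controls were basal doxycycline-induced cells for no effect and cells given 10 µM MG132 for full effect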", "conditions": "ABC-DLBCL IkBa-CBG/CBR reporter, luminescence ratio (green luciferase fused to IkBa over red control in TMD8 lymphoma cells), 4 h; activity change, negative = inhibition: at 46.1 µM (top of the series) unless noted", "summary_of_the_method": "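Compounds up to 46 uM were incubated four hours with TMD8 cells whose green CBG68 luciferase is fused to IkappaBalpha; red CBR luminescence normalised the signal, and concentration-effect curves were fitted to fusion, red and ratio data.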"}
{"compound": "Cc1ccccc1OCCn1cc(C(=O)O)c2ccccc21", "activity change, negative = inhibition": "inconclusive: -21.2%"}
{"compound": "Cc1nc2ccccc2c(=O)n1N", "Potency": "inconclusive: 6.31 µM [falling, single point]"}
{"compound": "CC1=C(C(=O)OCc2ccc3c(c2)OCO3)C(c2ccc(Cl)cc2)NC(=O)N1", "note": "(stereo not given)", "Potency": "inconclusive: 14.1 µM [falling, partial curve]"}
{"compound": "Cc1cc(Oc2ccc(=O)[nH]n2)nc(Cl)n1", "activity change, negative = inhibition": "inconclusive: 1.78%"}
{"compound": "CCCN1/C(=C2/SC(=S)N(CC)C2=O)C=Cc2ccccc21", "activity change, negative = inhibition": "inactive"}
{"compound": "N=c1oc2cc(O)ccc2cc1C(=O)Nc1ccc(Cl)cc1", "activity change, negative = inhibition": "inconclusive: 487%"}
{"compound": "O=C(c1ccccc1)c1ccc(OCCOCCN2CCN(Cc3ccccc3)CC2)cc1", "activity change, negative = inhibition": "inconclusive: -21.4%"}
{"compound": "Cc1ccc(S(=O)(=O)N2[C@@H](c3ccc(Cl)cc3)C(C(=O)O)=CC[C@H]2c2ccc(C(C)C)cc2)cc1", "activity change, negative = inhibition": "inactive"}
{"compound": "Cc1cc(C)c(C)c(OCCN2CCOCC2)c1", "activity change, negative = inhibition": "inconclusive: -0.117%"}
{"compound": "COC(=O)COc1ccc(-c2nn(C)c(=O)c3ccccc23)cc1", "activity change, negative = inhibition": "inconclusive: -4%"}
{"compound": "O=C(Nc1ccccc1)C1=C(O)CC(c2ccc(Cl)cc2)N2CCN=C12", "note": "(stereo not given)", "activity change, negative = inhibition": "inconclusive: 0.0588%"}
{"compound": "COc1ccc(-c2sc3cc4c(cc3c2C#CCO)OCO4)cc1", "activity change, negative = inhibition": "inconclusive: 15.1%"}
{"compound": "C=CCOC(=O)/C(=C\\C=C\\c1ccccc1)NC(=O)c1ccccc1", "Potency": "inconclusive: 1.64 µM [falling, partial curve, poor fit]"}
{"compound": "Cn1c(C2=C(O)CN(c3ccccc3)C2=N)nc2ccccc21", "Potency": "inconclusive: 35.5 µM [falling, partial curve, poor fit]"}
{"compound": "Cc1c(NC(=O)c2c([N+](=O)[O-])cnn2C)c(=O)n(-c2ccccc2)n1C", "activity change, negative = inhibition": "inconclusive: -0.556%"}
{"compound": "O=C(Nc1c(C(=O)c2ccccc2)oc2ccccc12)c1cc(-c2ccccc2O)n[nH]1", "Potency": "inconclusive: 18.4 µM [cytotoxic, partial curve]"}
{"compound": "O=C(NNC1=C(C(=O)C(F)(F)F)CCC1)c1ccc(Br)cc1", "Potency": "inconclusive: 5.17 µM [falling, partial curve, poor fit]"}
{"compound": "Cc1ccc(C(=O)Nc2ccc(C(=O)O)cc2NC(=O)c2ccc(C)cc2)cc1", "Potency": "inconclusive: 22.4 µM [falling, partial curve]"}
{"compound": "CCCCCCCCN1N=N[C@H]2[C@H]1[C@@H]1C[C@H]2N(C(=O)OC(C)(C)C)O1", "activity change, negative = inhibition": "inconclusive: -8.69%"}
{"compound": "O=C(CN1CCCc2ccccc21)N/N=C/c1ccc(O)cc1O", "Potency": "inconclusive: 4.61 µM [falling, partial curve, poor fit]"}
{"compound": "COCCN1C(=S)N[C@@H](c2ccccc2)C(C(=O)OC)=C1C", "activity change, negative = inhibition": "inactive"}
{"compound": "COC(=O)CCCNC(=O)c1ccc(S(=O)(=O)NCc2ccco2)cc1", "activity change, negative = inhibition": "inconclusive: 11%"}
{"compound": "COc1ccc(N/N=C(\\C#N)C(=N)N2CCOCC2)cc1", "Potency": "inconclusive: 15.8 µM [falling, partial curve, poor fit]"}
{"compound": "Cc1ccsc1C(=O)NNC(=O)C1C2C=CC(C2)C1C(=O)O", "note": "(stereo not given)", "Potency": "inconclusive: 5.17 µM [falling, partial curve]"}
{"compound": "Cc1nnc(SCc2ccc(C(=O)O)cc2)s1", "activity change, negative = inhibition": "inconclusive: -6.1%"}
{"compound": "Cc1n[nH]c(C)c1CCN(C)Cc1cn(C)nc1-c1ccc2c(c1)OCCO2", "activity change, negative = inhibition": "inconclusive: -1.95%"}
{"compound": "O=C(c1c[nH]c2ccccc12)N1CCOCC1", "activity change, negative = inhibition": "inconclusive: -20.6%"}
{"compound": "Cc1cccc(NC(=O)Cn2nnc(-c3cccs3)n2)c1C", "activity change, negative = inhibition": "inconclusive: 1.09%"}
{"compound": "Oc1ccc(Br)cc1-c1ccnn1-c1ccccc1", "activity change, negative = inhibition": "inconclusive: -10.6%"}
{"compound": "Cc1cc(/C=C(/C#N)c2nc3ccccc3[nH]2)c(C)n1-c1ccccc1C(=O)O", "activity change, negative = inhibition": "inconclusive: 14.4%"}
{"compound": "COc1cccc(/C=C/C(=O)c2ccc(NS(=O)(=O)c3ccc(C)cc3)cc2)c1", "Potency": "inconclusive: 18.4 µM [falling, single point]"}
{"compound": "COc1cccc(C(=O)Nc2ccc(NC(=O)C3CCCCC3)nc2)c1", "activity change, negative = inhibition": "inconclusive: 12.4%"}
{"compound": "COc1ccc(C)cc1NC(=O)CSc1nc2scc(C)c2c(=O)[nH]1", "activity change, negative = inhibition": "inactive"}
{"compound": "Cc1cccc(C2CC3(CC(C)(C)NC(=S)N3)Oc3cc(O)ccc32)c1", "note": "(stereo not given)", "activity change, negative = inhibition": "inconclusive: -4.16%"}
{"compound": "COc1ccccc1/C=C\\C=N\\NC(=O)c1ccco1", "Potency": "inconclusive: 5.62 µM [rising, single point]"}
{"compound": "Cc1[nH]c2ccccc2c1/C=C/C(=O)c1ccncc1", "Potency": "inconclusive: 11.2 µM [falling, partial curve, poor fit]"}
{"compound": "O=C(Nc1ccc2c(c1)OCO2)C1CC(c2ccccc2O)=NO1", "note": "(stereo not given)", "activity change, negative = inhibition": "inconclusive: -10.3%"}
{"compound": "CCOc1ccc(C(=O)Nc2cccc(NC(=O)c3cccs3)c2)cc1[N+](=O)[O-]", "Potency": "inconclusive: 20.6 µM [falling, partial curve]"}
{"compound": "CCC(=O)c1ccc2c(c1)OCCO2", "activity change, negative = inhibition": "inconclusive: 0.442%"}
{"compound": "COc1cc2c(cc1NC(=O)C(C)Sc1cccc[n+]1[O-])oc1ccccc12", "note": "(stereo not given)", "activity change, negative = inhibition": "inconclusive: -7.75%"}
{"compound": "COC(=O)CN1C(c2cccc(Cl)c2)=Nc2ccc(Cl)cc2C1c1ccccc1", "note": "(stereo not given)", "activity change, negative = inhibition": "inconclusive: 11.4%"}
{"compound": "O=C(CSc1nc2ccccc2c(=O)n1CCCN1CCOCC1)Nc1ccc(F)c(Cl)c1", "activity change, negative = inhibition": "inactive"}
{"compound": "COc1cccc2nc3cc(C)c(C)cc3nc12", "Potency": "inconclusive: 1.12 µM [rising, partial curve, poor fit]"}
{"compound": "O=C(NC1CCc2ccccc21)c1cc(COc2c(F)cccc2F)on1", "note": "(stereo not given)", "Potency": "inconclusive: 17.8 µM [falling, partial curve]"}
{"compound": "O=C(/C=C/c1ccco1)OCC(=O)c1ccc(OC(F)F)cc1", "activity change, negative = inhibition": "inconclusive: 0.614%"}
{"compound": "Cc1ccc(C)c2[nH]c(=O)c(CN(Cc3ccco3)C(=O)Nc3ccccc3)cc12", "activity change, negative = inhibition": "inconclusive: -4.85%"}
{"compound": "Nc1ccc(SCc2nc3cccc4c3n2CCC4)cc1", "activity change, negative = inhibition": "inconclusive: 1.27%"}
{"compound": "COc1ccc(NC(=O)C2CCCCN2S(=O)(=O)c2ccc(F)cc2)c(OC)c1", "note": "(stereo not given)", "activity change, negative = inhibition": "inconclusive: 3.73%"}
{"compound": "CCOc1ccccc1C(=O)Nc1cc(OC)ccc1OC", "activity change, negative = inhibition": "inconclusive: -14.1%"}
{"compound": "COc1ccc(NS(=O)(=O)c2cc(NC(=O)c3nn(C)c(=O)c4ccccc34)ccc2OC)cc1", "activity change, negative = inhibition": "inconclusive: -13%"}
